Values from PubChem BioAssay AID686937 (Drosophila RNAi Screening Center, 2013).
Aim: 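Knock-downs that reduce output of a secreted reporter enzyme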 (primary screen). System: Drosophila S2 cells expressing secreted horseradish peroxidase. Reagents: long dsRNA against Drosophila genes. Timing: about 5.5 days (5 days dsRNA, then 12 h reporter induction). Conditions: reporter expression induced after 5 days of dsRNA, read 12 h later; inducer not stated. Detection: 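Chemiluminescent measurement of peroxidase in the medium 12 h after reporter induction, following 5 days of dsRNA, given as a z-score per plate; higher means more secretion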. Scale: z-score: higher = more reporter secreted into medium.
In all, the deposit lists about 23,000 reagents; below is an unselected part of those that have a named target and a result. 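Reduced-secretion tags in replicate 1 do not always agree with the z-scores; no criterion for assigning the tags was given.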 Reagents against one gene are numbered here. Further read-outs or replicates are left out here. The record does not give: the amount of reagent.

CYTB (retired record)
- z-score, replicate 1: 0.3

Cyp4ac1
- z-score, replicate 1: 0.46

CG11370
- z-score, replicate 1: -0.15

CG6023
- z-score, replicate 1: 0.54

IFT43
- z-score, replicate 1: 0.34

al
- z-score, replicate 1: 0.18

Pop5
- z-score, replicate 1: 0.35

Irk1 #1
- z-score, replicate 1: 0.4

Irk1 #2
- z-score, replicate 1: 0.1

I-t
- z-score, replicate 1: 0.05

CG11883
- z-score, replicate 1: 0.37

CG14835
- z-score, replicate 1: 0.16

tbrd-1
- z-score, replicate 1: 0.19

UGP
- z-score, replicate 1: 0.45

CG9222
- z-score, replicate 1: 0.05

Tsp42Ea #1
- z-score, replicate 1: 0.35

Tsp42Ea #2
- z-score, replicate 1: 0.35

Xxylt
- z-score, replicate 1: 0.14

stac #1
- z-score, replicate 1: -0.83

stac #2
- z-score, replicate 1: 0.29

stac #3
- z-score, replicate 1: 0.25

CG18853
- z-score, replicate 1: 0.22

mei-W68
- z-score, replicate 1: 0.48

PolE1
- z-score, replicate 1: 0.72

CG7115
- z-score, replicate 1: 0.56

CG16789
- z-score, replicate 1: 0.34

CG42750 #1
- z-score, replicate 1: 0.38
- phenotype, replicate 1: reduced secretion

CG42750 #2
- z-score, replicate 1: 0.56

CG42750 #3
- z-score, replicate 1: 0.47

CG42750 #4
- z-score, replicate 1: 0.07

dnk
- z-score, replicate 1: 0.36

shrb
- z-score, replicate 1: -2.56
- phenotype, replicate 1: reduced secretion

Osi22
- z-score, replicate 1: 0.5

CG34273
- z-score, replicate 1: 0.73

arm
- z-score, replicate 1: 0.22

Gr59d
- z-score, replicate 1: -0.27

Nepl15
- z-score, replicate 1: 0.36

Cyp28a5
- z-score, replicate 1: 0.28

ssp2
- z-score, replicate 1: 0.66

GrlHz
- z-score, replicate 1: 0.15

Entries listed so far whose gene name begins with T or t:
tbrd-1
- z-score, replicate 1: 0.19

Tsp42Ea #1
- z-score, replicate 1: 0.35

Tsp42Ea #2
- z-score, replicate 1: 0.35
